{"source": "the supplement of paper PMC4604168 (melanoma cell lines)", "note": "The list shows a part of the results. Repeats are few or missing, and single values can be far off.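 Cells were imaged in 1,536-well plates, and nuclei stained with an antibody against cleaved PARP were counted against all DNA-stained nuclei to give the apoptosis fraction. Screening doses were chosen to leave most cells alive, and resting and induced cleaved-PARP levels differ strongly between cell lines.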"}
{"system": "G361", "experiment": "cleaved PARP positive nuclei fraction relative to DMSO control; melanoma cells; higher = more apoptosis", "settings": "library dose: low library concentration; 72 h", "units": {"cleaved PARP positive nuclei fraction": "%"}}
{"molecule": "C[As](C)SC[C@H](NC(=O)CC[C@H](N)C(=O)O)C(=O)NCC(=O)O", "note": "[Darinaparsin] + c1cc(-c2cnn3cc(-c4ccc(OCCN5CCCCC5)cc4)cnc23)ccn1 [Dorsomorphin] (first compound 0.4 µM, partner dose 0.4 µM)", "cleaved PARP positive nuclei fraction": 179}
{"molecule": "Cc1nc(Nc2ncc(C(=O)Nc3c(C)cccc3Cl)s2)cc(N2CCN(CCO)CC2)n1", "note": "[dasatanib] + Cc1cc(SCc2sc(-c3ccc(C(F)(F)F)c(F)c3)nc2C)ccc1OCC(=O)O [GW0742] (first compound 0.004 µM, partner dose 2 µM)", "cleaved PARP positive nuclei fraction": 170}
{"molecule": "C/C(O)=C(\\C#N)C(=O)Nc1cc(Br)ccc1Br", "note": "+ Oc1nc(-c2ccc(C(F)(F)F)cc2)nc2c1CSCC2 [XAV939] (first compound 2 µM, partner dose 2 µM)", "cleaved PARP positive nuclei fraction": 69.1}
{"molecule": "O=C(Nc1cccc(Cl)c1)Nc1ncc(CCNc2ncnc3ccsc23)s1", "note": "+ C/C(O)=C(\\C#N)C(=O)Nc1cc(Br)ccc1Br [LFM-A13] (first compound 0.0008 µM, partner dose 2 µM)", "cleaved PARP positive nuclei fraction": 117}
{"molecule": "Cc1ccc(NC(=O)c2cccc(N(C)C)c2)cc1NC(=O)c1ccc(O)cc1", "note": "+ O=C(Oc1ccc([N+](=O)[O-])cc1)N1CCC(C(O)(c2ccc3c(c2)OCO3)c2ccc3c(c2)OCO3)CC1 [JZL184] (first compound 2 µM, partner dose 1 µM)", "cleaved PARP positive nuclei fraction": 81.6}
{"molecule": "O=C(Oc1ccc([N+](=O)[O-])cc1)N1CCC(C(O)(c2ccc3c(c2)OCO3)c2ccc3c(c2)OCO3)CC1", "note": "+ CC(C)CCN1c2nc(Nc3cc(F)c(O)c(F)c3)ncc2N(C)C(=O)C1C [BID1870] (first compound 1 µM, partner dose 0.2 µM)", "cleaved PARP positive nuclei fraction": 67.5}
{"molecule": "OCCn1cc(-c2cnc3nnn(Cc4ccc5ncccc5c4)c3n2)cn1", "note": "+ C/C(O)=C(\\C#N)C(=O)Nc1cc(Br)ccc1Br [LFM-A13] (first compound 1 µM, partner dose 2 µM)", "cleaved PARP positive nuclei fraction": 171}
{"molecule": "C[As](C)SC[C@H](NC(=O)CC[C@H](N)C(=O)O)C(=O)NCC(=O)O", "note": "[Darinaparsin] + O=C1NC(=O)/C(=C/c2ccc(-c3ccc(F)cc3O)o2)S1 [AS252424] (first compound 0.4 µM, partner dose 1 µM)", "cleaved PARP positive nuclei fraction": 81.4}
{"molecule": "Nc1cccc2c1CN(C1CCC(=O)NC1=O)C2=O", "note": "(stereo not drawn) [lenalidomide] + Cc1cc(SCc2sc(-c3ccc(C(F)(F)F)c(F)c3)nc2C)ccc1OCC(=O)O [GW0742] (first compound 1 µM, partner dose 2 µM)", "cleaved PARP positive nuclei fraction": 76.3}
{"molecule": "C/C(O)=C(\\C#N)C(=O)Nc1cc(Br)ccc1Br", "note": "+ CCCCCCCCCCCC1=C(O)C(=O)C=C(O)C1=O [Embelin] (first compound 2 µM, partner dose 1.2 µM)", "cleaved PARP positive nuclei fraction": 117}
{"molecule": "Cc1cc(SCc2sc(-c3ccc(C(F)(F)F)c(F)c3)nc2C)ccc1OCC(=O)O", "note": "+ Cn1cc(/C=C2\\C(=O)Nc3cccnc32)c2ccccc21 [GW441756] (first compound 2 µM, partner dose 0.4 µM)", "cleaved PARP positive nuclei fraction": 162}
{"molecule": "C[As](C)SC[C@H](NC(=O)CC[C@H](N)C(=O)O)C(=O)NCC(=O)O", "note": "[Darinaparsin] + Cc1cc([N+](=O)[O-])ccc1NS(=O)(=O)c1cc(Cl)ccc1Cl [FH535] (first compound 0.4 µM, partner dose 1 µM)", "cleaved PARP positive nuclei fraction": 124}
{"molecule": "C=CCn1c(=O)c2cnc(Nc3ccc(N4CCN(C)CC4)cc3)nc2n1-c1cccc(C(C)(C)O)n1", "note": "+ O=C(Oc1ccc([N+](=O)[O-])cc1)N1CCC(C(O)(c2ccc3c(c2)OCO3)c2ccc3c(c2)OCO3)CC1 [JZL184] (first compound 0.02 µM, partner dose 1 µM)", "cleaved PARP positive nuclei fraction": 85}
{"molecule": "C/C(O)=C(\\C#N)C(=O)Nc1cc(Br)ccc1Br", "note": "+ c1cc(-c2cnn3cc(-c4ccc(OCCN5CCCCC5)cc4)cnc23)ccn1 [Dorsomorphin] (first compound 2 µM, partner dose 0.4 µM)", "cleaved PARP positive nuclei fraction": 210}
{"molecule": "C/C(O)=C(\\C#N)C(=O)Nc1cc(Br)ccc1Br", "note": "+ O=C(Oc1ccc([N+](=O)[O-])cc1)N1CCC(C(O)(c2ccc3c(c2)OCO3)c2ccc3c(c2)OCO3)CC1 [JZL184] (first compound 2 µM, partner dose 1 µM)", "cleaved PARP positive nuclei fraction": 69.8}
{"molecule": "Cc1cc(SCc2sc(-c3ccc(C(F)(F)F)c(F)c3)nc2C)ccc1OCC(=O)O", "note": "+ O=C1NC(=O)/C(=C/c2ccc(-c3ccc(F)cc3O)o2)S1 [AS252424] (first compound 2 µM, partner dose 1 µM)", "cleaved PARP positive nuclei fraction": 81.3}
{"molecule": "CCc1ccc(CCOc2ccc(CC3SC(=O)NC3=O)cc2)nc1", "note": "(stereo not drawn) [pioglitazone] + Cc1cc(SCc2sc(-c3ccc(C(F)(F)F)c(F)c3)nc2C)ccc1OCC(=O)O [GW0742] (first compound 2 µM, partner dose 2 µM)", "cleaved PARP positive nuclei fraction": 83.2}
{"molecule": "COc1ccc2c(c1)CCC1C2CCC2(C)C(NCCCCCCN3C(=O)C=CC3=O)CCC12", "note": "(stereo not drawn) + O=C(Oc1ccc([N+](=O)[O-])cc1)N1CCC(C(O)(c2ccc3c(c2)OCO3)c2ccc3c(c2)OCO3)CC1 [JZL184] (first compound 0.4 µM, partner dose 1 µM)", "cleaved PARP positive nuclei fraction": 140}
{"molecule": "Cc1cc(SCc2sc(-c3ccc(C(F)(F)F)c(F)c3)nc2C)ccc1OCC(=O)O", "note": "+ O=C(Oc1ccc([N+](=O)[O-])cc1)N1CCC(C(O)(c2ccc3c(c2)OCO3)c2ccc3c(c2)OCO3)CC1 [JZL184] (first compound 2 µM, partner dose 1 µM)", "cleaved PARP positive nuclei fraction": 57.2}
{"molecule": "C/C(O)=C(\\C#N)C(=O)Nc1cc(Br)ccc1Br", "note": "+ Cc1cc([N+](=O)[O-])ccc1NS(=O)(=O)c1cc(Cl)ccc1Cl [FH535] (first compound 2 µM, partner dose 1 µM)", "cleaved PARP positive nuclei fraction": 83.3}
{"molecule": "NCC(=O)Nc1ccc(-n2nc(C(F)(F)F)cc2-c2ccc3c(ccc4ccccc43)c2)cc1", "note": "+ O=C(Oc1ccc([N+](=O)[O-])cc1)N1CCC(C(O)(c2ccc3c(c2)OCO3)c2ccc3c(c2)OCO3)CC1 [JZL184] (first compound 1 µM, partner dose 1 µM)", "cleaved PARP positive nuclei fraction": 59.8}
{"molecule": "O=C(O)C(=O)Nc1sc2c(c1C(=O)O)CCNC2", "note": "+ C/C(O)=C(\\C#N)C(=O)Nc1cc(Br)ccc1Br [LFM-A13] (first compound 1.66667 µM, partner dose 2 µM)", "cleaved PARP positive nuclei fraction": 66.1}
{"molecule": "COc1ccc2c(c1)CCC1C2CCC2(C)C(NCCCCCCN3C(=O)C=CC3=O)CCC12", "note": "(stereo not drawn) + Cc1cc(SCc2sc(-c3ccc(C(F)(F)F)c(F)c3)nc2C)ccc1OCC(=O)O [GW0742] (first compound 0.4 µM, partner dose 2 µM)", "cleaved PARP positive nuclei fraction": 118}
{"molecule": "Cc1ccc(NC(=O)c2cccc(N(C)C)c2)cc1NC(=O)c1ccc(O)cc1", "note": "+ C/C(O)=C(\\C#N)C(=O)Nc1cc(Br)ccc1Br [LFM-A13] (first compound 2 µM, partner dose 2 µM)", "cleaved PARP positive nuclei fraction": 78.1}
{"molecule": "O=C(Oc1ccc([N+](=O)[O-])cc1)N1CCC(C(O)(c2ccc3c(c2)OCO3)c2ccc3c(c2)OCO3)CC1", "note": "+ O=c1cc(-c2cccc3c2Sc2ccccc2S3)oc(N2CCOCC2)c1 [KU55933] (first compound 1 µM, partner dose 1 µM)", "cleaved PARP positive nuclei fraction": 93.7}
{"molecule": "C/C(O)=C(\\C#N)C(=O)Nc1cc(Br)ccc1Br", "note": "+ O=c1cc(-c2cccc3c2Sc2ccccc2S3)oc(N2CCOCC2)c1 [KU55933] (first compound 2 µM, partner dose 1 µM)", "cleaved PARP positive nuclei fraction": 143}
{"molecule": "C=CCn1c(=O)c2cnc(Nc3ccc(N4CCN(C)CC4)cc3)nc2n1-c1cccc(C(C)(C)O)n1", "note": "+ Cc1cc(SCc2sc(-c3ccc(C(F)(F)F)c(F)c3)nc2C)ccc1OCC(=O)O [GW0742] (first compound 0.02 µM, partner dose 2 µM)", "cleaved PARP positive nuclei fraction": 62.2}
{"molecule": "C[C@]1(c2nc3c(C(N)=O)cccc3[nH]2)CCCN1", "note": "[Veliparib] + Cc1cc(SCc2sc(-c3ccc(C(F)(F)F)c(F)c3)nc2C)ccc1OCC(=O)O [GW0742] (first compound 1.4 µM, partner dose 2 µM)", "cleaved PARP positive nuclei fraction": 103}
{"molecule": "CCN(CC)CCCCNc1ncc2cc(-c3cc(OC)cc(OC)c3)c(NC(=O)NC(C)(C)C)nc2n1", "note": "+ Cc1cc(SCc2sc(-c3ccc(C(F)(F)F)c(F)c3)nc2C)ccc1OCC(=O)O [GW0742] (first compound 0.1 µM, partner dose 2 µM)", "cleaved PARP positive nuclei fraction": 63}
{"molecule": "O=C(O)c1ccc(-c2c[nH]c3ncc(-c4ccccc4)cc23)cc1C1CCCC1", "note": "+ Cc1cc(SCc2sc(-c3ccc(C(F)(F)F)c(F)c3)nc2C)ccc1OCC(=O)O [GW0742] (first compound 0.16 µM, partner dose 2 µM)", "cleaved PARP positive nuclei fraction": 51.8}
{"molecule": "NC(=O)Nc1cc(-c2cccc(F)c2)sc1C(=O)N[C@H]1CCCNC1", "note": "+ O=C(Oc1ccc([N+](=O)[O-])cc1)N1CCC(C(O)(c2ccc3c(c2)OCO3)c2ccc3c(c2)OCO3)CC1 [JZL184] (first compound 0.02 µM, partner dose 1 µM)", "cleaved PARP positive nuclei fraction": 151}
{"molecule": "O=C(O)C(=O)Nc1sc2c(c1C(=O)O)CCNC2", "note": "+ O=C(Oc1ccc([N+](=O)[O-])cc1)N1CCC(C(O)(c2ccc3c(c2)OCO3)c2ccc3c(c2)OCO3)CC1 [JZL184] (first compound 1.66667 µM, partner dose 1 µM)", "cleaved PARP positive nuclei fraction": 132}
{"molecule": "COc1ccc(-c2ccc3c(N4CCOCC4)nc(N4C[C@@H](C)O[C@@H](C)C4)nc3n2)cc1CO", "note": "+ Cc1cc(SCc2sc(-c3ccc(C(F)(F)F)c(F)c3)nc2C)ccc1OCC(=O)O [GW0742] (first compound 0.02 µM, partner dose 2 µM)", "cleaved PARP positive nuclei fraction": 138}
